Data from PubChem BioAssay AID652054 (National Center for Advancing Translational Sciences (NCATS), 2013).
The whole screen tested about 360,000 compounds, of which about 9,100 (2.5%) were called active. The shares of active, inactive and inconclusive entries below differ from those in the screen. No stated cut-off is given here; in the data, active means max response below about -50%; inconclusive means no clear call, values can overlap the other calls; inactive means above that.

The chains behind the UniProt entries cited, without tags or fusion partners.
UniProt P35462, whole entry, looked up: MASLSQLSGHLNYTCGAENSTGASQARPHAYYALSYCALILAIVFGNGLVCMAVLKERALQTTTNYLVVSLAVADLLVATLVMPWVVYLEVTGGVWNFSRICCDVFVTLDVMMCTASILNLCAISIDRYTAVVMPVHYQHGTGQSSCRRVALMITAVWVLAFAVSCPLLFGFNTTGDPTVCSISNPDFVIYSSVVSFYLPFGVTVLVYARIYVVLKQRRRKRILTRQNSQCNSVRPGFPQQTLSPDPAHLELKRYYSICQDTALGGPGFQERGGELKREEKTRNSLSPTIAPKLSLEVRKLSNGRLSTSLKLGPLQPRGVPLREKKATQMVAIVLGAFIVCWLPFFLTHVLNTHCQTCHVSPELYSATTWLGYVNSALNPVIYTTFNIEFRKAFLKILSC

Molecular target: D(3) dopamine receptor (Homo sapiens) (UniProt P35462)
Experiment: qHTS of D3 Dopamine Receptor Antagonist: qHTS
Conditions: D3R cells, DiscoveRx beta-arrestin luminescence, antagonist mode; active compounds read low
How it was run: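 Cells plated overnight at 1500 cells/well, then exposed to library compounds with dopamine controls for 90 minutes at 37 degrees C. DiscoveRx reagent added for 30–60 minutes at room temperature; luminescence read, quantitative HTS format.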
On the % scale 0 is the no-effect control and ±100 the full control effect.

Max response, negative = inhibition, active:
O=C(CN1CCC(n2nnc3cc(F)ccc32)CC1)Nc1ccccc1N1CCOCC1 -54.8%
Cc1cc(N2CCCC2)nc2ccc(NC(=S)NCCCN3CCC(C)CC3)cc12 -65.6%
CCN(C(=O)c1cc2c(s1)-c1ccccc1OC2)c1cc(OC)ccc1OC -53.9%
COc1ccc(-c2nnc(Nc3nc4c(OC)cccc4s3)o2)c(OC)c1 -68%
O=C(CN(C(=O)CNS(=O)(=O)c1ccccc1)C1CCCC1)NCC1CCCO1 (stereo unspecified) -52.9%
CCOc1c(Cl)cc(C(=O)NCCN2CCCCC2)cc1Cl -73.1%
Cc1ccc(NC(=O)C2=C(c3ccccc3)S(=O)(=O)CCS2(=O)=O)cc1 -71.3%
O=c1c2c3c(sc2n(CCN2CCCC2)c(=O)n1Cc1ccco1)CCCCC3 -63.9%
O=C(N[C@@H]1CCC(=O)N(CC[C@H](Sc2ccccc2)c2ccccc2)CC1)OCc1ccccc1 -91.6%
COc1nccnc1NS(=O)(=O)c1ccc(N=Cc2c(C)[nH]n(-c3ccc(C)c(C)c3)c2=O)cc1 -59.7%
CCOC(=O)C1(CC2CC2)CCN(Cc2ccc(OC)cc2F)CC1 -68.4%
O=c1cc(CN2CCN(C/C=C/c3ccccc3)CC2)c2cc(O)ccc2o1 -62.5%
Nn1c(SCC(=O)NC2CCCCC2)nnc1C1CC1 -62.5%
O=C(C1CC(=O)N(c2ccccc2)C1)N1CCN(c2ccc(F)cc2)CC1 (stereo unspecified) -68.6%

Max response, negative = inhibition, inactive:
Cc1ccc(N(CC(=O)N2CCOCC2)S(=O)(=O)c2ccccc2)cc1 4.64%
CCOC(=O)Cn1c(=N)n(CCOc2ccc(OC)cc2)c2ccccc21 14.4%
C[C@H](CO)N1C[C@H](C)[C@@H](CN(C)CC2CC2)Oc2c(NC(=O)C3CC3)cccc2C1=O -15.2%
Cc1cccc(C(=O)NCC(=O)OCC(=O)c2ccc(Br)s2)c1 8.47%
CC1CN(C(=O)COC(=O)/C=C/c2ccc(C(F)(F)F)cc2)CC(C)O1 (stereo unspecified) -15.2%
CCC(=O)Nc1ccc2nc3c(=O)[nH]c(=S)[nH]c3nc2c1 -13.1%
C[C@@H]1CN([C@H](C)CO)S(=O)(=O)c2ccc(Br)cc2O[C@@H]1CN(C)C(=O)NC1CCCC1 -24.6%
COc1ccc(NC(=O)Nc2nnc(C(C)C)s2)cc1 18%
CN1c2ccccc2C(C)(C)[C@]12C=Cc1cc(O)ccc1O2 -2.68%
CCc1c(C)nc(Nc2nc(C)c3cc(OC)ccc3n2)[nH]c1=O 1.12%
CC(C)(C)c1ccc(C(=O)N/C(=C/c2cccs2)C(=O)NCc2ccco2)cc1 -12.7%
Cc1nc2ccccc2n1S(=O)(=O)c1ccc(Br)cc1 -17.2%
CCc1ccc(C(CNC(=O)c2ccc3c(=O)n(-c4ccccc4F)c(=S)[nH]c3c2)N(C)C)cc1 (stereo unspecified) -17.2%
CN1C(=O)c2ccccc2N(C)C1c1ccc(F)cc1 (stereo unspecified) 18.7%
CC(=O)Oc1ccccc1N(C(C)=O)S(=O)(=O)c1ccc2ccccc2c1 -23.4%
Cc1cccc(NS(=O)(=O)c2ccc(C(=O)NCC3CCCO3)cc2)c1C (stereo unspecified) 19.8%
CC1CC(C)CN(c2ccc(-n3cnnn3)cc2[N+](=O)[O-])C1 (stereo unspecified) -25.6%
Nc1c(C(=O)N/N=C/c2ccc(Cl)cc2)cnn1-c1ccccc1 6.49%
CCN(CC)CCNC(=O)C(C)c1nn(CC)c(=O)c2ccccc12 (stereo unspecified) 2.89%
COc1cccc(-n2c(SCC(=O)NCCC3=CCCCC3)nc3n[nH]c(C)c3c2=N)c1 5.24%
CN(C(=O)CN1CCN(c2cc(-c3ccc(OCc4ccccc4)cc3)ncn2)CC1)c1ccccc1 49%
CCOc1cc2c(C#N)c(N3CCNCC3)nc(N)c2c(N)n1 2.72%
CC1=NNC(=O)C1CCC(=O)N/N=C/C=C/c1ccccc1 (stereo unspecified) 1.8%
CC(OC(=O)C1CC1C)C(=O)Nc1ncc(Cl)cc1Cl (stereo unspecified) -0.291%

Max response, negative = inhibition, inconclusive:
Cn1cc(C[C@H](NC(=O)OC(C)(C)C)C(=O)N[C@H](CO)Cc2ccccc2)c2ccccc21 -40.3%
c1csc(-c2nn3c(Cn4nnc5ccccc54)nnc3s2)c1 -46%
CCOC(=O)C1CCCN(CCC(=O)Nc2ccc(F)c(F)c2)C1 (stereo unspecified) -40.1%
C#CCN(C)CCCOc1ccc(Cl)cc1Cl -48.8%
Nn1c(Cc2ccccc2)nc2ccccc2c1=O -30.5%
Cc1ccc(N(C)S(=O)(=O)c2nnc(NC(=O)c3ccco3)s2)cc1 -30.7%
CCOC(=O)c1ccc(N2C(=O)CC(Sc3nnc(C)s3)C2=O)cc1 (stereo unspecified) -34.1%
Cc1nn(CC(=O)NNC(=O)c2ccc(Br)cc2)c(C)c1[N+](=O)[O-] -33.4%
Cc1cccc(NC(=O)COc2ccc(Br)cc2)n1 -46.4%
c1ccc(NC2=NCCN2CCCC2CCCC2)cc1 -41.9%
COCCCN1C(=O)C(CC(=O)NC(c2ccccc2)c2ccccc2)CC(C(=O)N2CCCCCC2)=C1C (stereo unspecified) -37.8%
COc1cccc(C(=O)N(C)CC(=O)Nc2ccc(F)c(F)c2F)c1 -33.9%
CC(=O)NCc1ccc(S(=O)(=O)N/N=C/c2ccc(Br)cc2)cc1 -35.3%
O=C(Cn1c(=O)n(Cc2ccco2)c(=O)c2ccccc21)NCC1CCCO1 (stereo unspecified) -37.5%
Nc1ccc2c(c1)C(=O)c1cc([N+](=O)[O-])ccc1-2 -39.2%
O=C(Nc1ccc(N2CCN(C(=O)c3ccc(Cl)cc3)CC2)cc1)c1ccc([N+](=O)[O-])o1 -48%
COc1nc(N2CCOCC2)nc(C)c1[N+](=O)[O-] -38.8%
Cc1ccc(CC(=O)OC(C)C(=O)NC2CCCCC2C)cc1C (stereo unspecified) -43.2%
O=C(CN1CCN(c2ccccn2)CC1)N1CCc2ccccc21 -49.9%
CCCCCCCN1C/C=C\C(c2ccc(OC)cc2)N(Cc2ccc(F)cc2)C(=O)[C@H]1Cc1ccccc1 (stereo partly specified) -34.2%
CC(OC(=O)CCc1nc(=O)c2ccccc2n1C)C(=O)NCc1ccc2c(c1)OCO2 (stereo unspecified) -33.7%
COc1cc2ccccc2cc1C(=O)Nc1ccc(N2CCN(C)CC2)cc1 -41.2%
COc1ccc(Cl)cc1NC(=O)C1COc2ccccc2O1 (stereo unspecified) -47.6%
Cc1ccnc(NS(=O)(=O)c2ccc(NC(=O)C34CC5CC(CC(C5)C3)C4)cc2)n1 -44%
O=C(C[C@H]1C[C@H](C(=O)N2CCCCC2)[C@@]2(CCc3ccccc3)c3[nH]c4cc(-c5ccco5)ccc4c3CCN2C1=O)NCCN1CCOCC1 -48.2%
Cc1ccc(NC(=O)CN(C)C(=O)c2ccc(Cl)c([N+](=O)[O-])c2)cc1 -44.5%
COc1ccc(NC(=O)c2ccc(CN3CCN(c4ccccc4)CC3)cc2)cc1 -42.4%
CC(C)(C)NC(=S)Nc1ccc(Nc2ccccc2)cc1 -42.6%
CN1C(=O)/C(=C\c2ccccc2F)Sc2ccc(C(=O)NC3CCN(Cc4ccccc4)CC3)cc21 -30.4%
Cc1ccc(C)c(NC(=S)NC(=O)c2cncc(Br)c2)c1 -46.7%
CCc1cc2cc(C(=O)N3CCN(Cc4ccccc4)CC3)sc2s1 -47.1%
O=C(O)c1cc(S(=O)(=O)N2CCCCC2)ccc1N1CCOCC1 -47.6%
O=S(=O)(c1ccc(Cl)c(NC(=S)Nc2cccc(O)c2)c1)N1CCOCC1 -46.3%
CCCn1nnc(NC(=S)NC(=O)Cc2ccccc2)n1 -41.2%
O=C(NNc1c2ccccc2nc2ccccc12)c1ccc(O)cc1O -43%
COc1ccccc1OCC(=O)O -46.4%
COCC(=O)O[C@]1(CCN(C)CCCc2nc3ccccc3[nH]2)CCc2cc(F)ccc2[C@@H]1C(C)C -33.2%
Cc1ccc(NC(=O)COC(=O)c2ccc3c(c2)C(=O)N(CCc2ccccc2)C3=O)c(C)c1 -37.3%
Cn1nccc1C(=O)Nc1ccccc1C(=O)O -42.8%
CCOc1cc(C2C(C#N)=C(N)Oc3n[nH]c(CC)c32)ccc1OCCN1CCOCC1 (stereo unspecified) -45.1%
COc1ccc([C@H]2CC(=O)C=C(c3ccc(OC(F)(F)F)cc3)C2)cc1 -32.3%
N#C/C(=C/c1ccc(N2CCCCCC2)o1)c1ccc(F)cc1 -46.1%
Cc1ccccc1NC(=O)CN1CCc2ccccc2C1 -34.7%
CCN(Cc1ccc(NC(C)=O)cc1)CC1CCCN(CCc2cccc(F)c2)C1 (stereo unspecified) -47.9%
CC(C)N1CCN(C(=O)c2ccc(OC3CCN(CCc4ccccc4)CC3)cc2)CC1 -32.5%
COc1ccc(Oc2ccc(/C=C/C(=O)c3ccc(O)cc3)cc2[N+](=O)[O-])cc1 -33.9%
O=C(CSc1nnc(C2CC2)n1Cc1ccccc1)c1cc2ccccc2o1 -37.4%
COc1ccc(OC)c(NC(=O)Nc2cccnc2)c1 -33.5%

Random excerpt: 6 compounds from above.
Max response, negative = inhibition, inconclusive:
CC(OC(=O)CCc1nc(=O)c2ccccc2n1C)C(=O)NCc1ccc2c(c1)OCO2 (stereo unspecified) -33.7%
Cn1nccc1C(=O)Nc1ccccc1C(=O)O -42.8%
Cc1ccc(N(C)S(=O)(=O)c2nnc(NC(=O)c3ccco3)s2)cc1 -30.7%
O=C(Cn1c(=O)n(Cc2ccco2)c(=O)c2ccccc21)NCC1CCCO1 (stereo unspecified) -37.5%
CCOc1cc(C2C(C#N)=C(N)Oc3n[nH]c(CC)c32)ccc1OCCN1CCOCC1 (stereo unspecified) -45.1%
Cc1ccc(NC(=O)COC(=O)c2ccc3c(c2)C(=O)N(CCc2ccccc2)C3=O)c(C)c1 -37.3%
